From article PMC6488673, “Crystal structure of the Lin28-interacting module of human terminal uridylyltransferase that regulates let-7 expression”
Results are given in words; binding and its absence hold for the method and conditions named.

By UniProt entry, the sequences of proteins in these tests, tags left out. Where a name states a change or a piece, a line headed by the entry shows the natural chain unless it says otherwise.
UniProt Q5TAX3: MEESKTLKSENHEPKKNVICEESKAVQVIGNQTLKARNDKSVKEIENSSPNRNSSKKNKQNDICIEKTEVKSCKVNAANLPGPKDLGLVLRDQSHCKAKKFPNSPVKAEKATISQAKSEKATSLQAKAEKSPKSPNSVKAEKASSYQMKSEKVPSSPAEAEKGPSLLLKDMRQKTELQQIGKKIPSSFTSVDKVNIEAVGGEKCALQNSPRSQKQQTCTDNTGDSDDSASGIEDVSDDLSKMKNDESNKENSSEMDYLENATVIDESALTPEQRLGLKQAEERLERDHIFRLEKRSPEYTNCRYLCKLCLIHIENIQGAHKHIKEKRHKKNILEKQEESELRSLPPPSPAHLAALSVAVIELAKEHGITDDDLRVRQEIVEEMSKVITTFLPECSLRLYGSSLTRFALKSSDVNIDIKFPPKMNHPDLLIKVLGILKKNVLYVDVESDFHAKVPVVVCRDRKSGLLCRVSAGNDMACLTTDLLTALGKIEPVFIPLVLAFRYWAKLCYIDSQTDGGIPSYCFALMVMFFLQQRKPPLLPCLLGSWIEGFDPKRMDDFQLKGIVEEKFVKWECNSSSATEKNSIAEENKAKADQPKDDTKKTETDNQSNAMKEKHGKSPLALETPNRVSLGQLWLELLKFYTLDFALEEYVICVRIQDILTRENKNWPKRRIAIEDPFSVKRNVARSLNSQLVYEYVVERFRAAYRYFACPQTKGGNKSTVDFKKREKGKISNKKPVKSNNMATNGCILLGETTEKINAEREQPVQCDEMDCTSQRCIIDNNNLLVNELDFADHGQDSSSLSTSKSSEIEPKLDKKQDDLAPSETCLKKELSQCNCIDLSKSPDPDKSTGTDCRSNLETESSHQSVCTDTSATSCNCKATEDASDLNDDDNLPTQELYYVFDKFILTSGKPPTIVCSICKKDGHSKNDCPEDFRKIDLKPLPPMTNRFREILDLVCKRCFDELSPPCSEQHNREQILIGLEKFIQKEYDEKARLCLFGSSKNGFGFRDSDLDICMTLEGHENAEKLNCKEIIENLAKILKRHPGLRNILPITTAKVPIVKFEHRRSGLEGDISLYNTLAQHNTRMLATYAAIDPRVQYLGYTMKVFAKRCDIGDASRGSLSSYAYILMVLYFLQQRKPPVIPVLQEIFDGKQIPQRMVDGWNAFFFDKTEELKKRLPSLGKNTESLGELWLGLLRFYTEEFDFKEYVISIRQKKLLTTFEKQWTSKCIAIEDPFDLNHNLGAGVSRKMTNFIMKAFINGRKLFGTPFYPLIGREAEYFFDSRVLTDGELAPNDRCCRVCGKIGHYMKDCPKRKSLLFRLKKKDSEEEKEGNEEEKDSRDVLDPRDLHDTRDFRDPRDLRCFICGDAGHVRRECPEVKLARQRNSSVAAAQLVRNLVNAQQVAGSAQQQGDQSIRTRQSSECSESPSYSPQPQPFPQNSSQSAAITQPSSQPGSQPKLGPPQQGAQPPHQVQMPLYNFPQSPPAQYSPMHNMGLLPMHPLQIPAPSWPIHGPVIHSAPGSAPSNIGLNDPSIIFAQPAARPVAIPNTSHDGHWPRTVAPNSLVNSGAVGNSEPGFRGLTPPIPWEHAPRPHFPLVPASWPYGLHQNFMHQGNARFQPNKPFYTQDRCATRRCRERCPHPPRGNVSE

Biological target: T1, recombinant human Lin28A (residues 1-209) (human) (UniProt Q9H9Z2)
T1 sequence: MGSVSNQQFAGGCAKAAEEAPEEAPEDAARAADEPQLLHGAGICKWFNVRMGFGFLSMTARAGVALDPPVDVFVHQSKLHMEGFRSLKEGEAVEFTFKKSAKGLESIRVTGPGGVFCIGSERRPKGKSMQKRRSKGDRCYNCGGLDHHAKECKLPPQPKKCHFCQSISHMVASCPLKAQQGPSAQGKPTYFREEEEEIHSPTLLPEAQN
Experiment: RNA footprinting with Tb (III); 100 nM 5'-[32P]-labelled pre-let-7a-1 with or without 1 µM recombinant Lin28A and TUT4 variants; 50 mM Tris-HCl pH 8.5, 100 mM NaCl, 10 mM MgCl2, 5% glycerol, 10 mM β-mercaptoethanol, 22 °C; 10 mM Tb (III), 2 h; protection of the RNA is read; both purified

Which binding does the source give for “hTUT4_N_ΔZ (human TUT4 residues 334-723) (from UniProt Q5TAX3) (domain or fragment)” here?
The binding was “no binding (tested: 1 µM)”.
